Experimental data: PubChem BioAssay AID1508588 (Peter MacCallum Cancer Centre, 2020)
Test: 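Which gene losses make BRAF-mutant melanoma cells more responsive to vemurafenib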 (primary screen). System: human WM266.4 melanoma cells (BRAF V600 mutant). Reagents: siRNA pool against human genes, 40 nM. Timing: 96 h from transfection to read-out. Challenge: vemurafenib 300 nM (about IC25), added 48 h after transfection, for 48 h; comparison arm got DMSO vehicle only. Read-out: 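Ratios to non-targeting siRNA for cell gain, counted as DAPI nuclei after minus before drug and averaged over two replicates, and for absorbance-read medium lactate per cell; both binned into fold-change classes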. Reading the numbers: cell gain with vemurafenib: higher = more cell gain than with non-targeting siRNA; lactate per cell with vemurafenib: higher = more lactate made per cell. Rule for the call: 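a knock-down counts as enhancing when its fold-change classes with vehicle and with vemurafenib, taken together, show a stronger drug effect on cell gain or lactate per cell; exact class pairs not stated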. Calls: active = enhances vemurafenib effect; inactive = no enhancement seen.
Here is a random part of about 18,000 reagents. Over the whole deposit, 790 (4.4%) are marked active. 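Calls rest on a combination of fold-change classes in drug and vehicle arms, not all shown here.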 A reagent listed more than once was tested more than once; the source does not tell the runs apart.

AKIP1 (A-kinase interacting protein 1) [SID152148173]
- cell gain with vemurafenib: 0.07
- lactate per cell with vemurafenib: 1.7
- Outcome: inactive

CCDC62 (coiled-coil domain containing 62) [SID134321973]
- cell gain with vemurafenib: 0.58
- lactate per cell with vemurafenib: 1.02
- Outcome: inactive

ZC3HC1 (zinc finger C3HC-type containing 1) [SID152154939]
- cell gain with vemurafenib: 0.54
- lactate per cell with vemurafenib: 0.64
- Outcome: inactive

CNTD1 (cyclin N-terminal domain containing 1) [SID134322265]
- cell gain with vemurafenib: 0.15
- lactate per cell with vemurafenib: 1.34
- Outcome: inactive

PRMT1 (protein arginine methyltransferase 1) [SID135621890]
- cell gain with vemurafenib: 0.49
- lactate per cell with vemurafenib: 0.82
- Outcome: inactive

GALNT11 (polypeptide N-acetylgalactosaminyltransferase 11) [SID152156159]
- cell gain with vemurafenib: 0.22
- lactate per cell with vemurafenib: 1.85
- Outcome: inactive

CTCF (CCCTC-binding factor) [SID135623925]
- cell gain with vemurafenib: 0.02
- lactate per cell with vemurafenib: 1.72
- Outcome: inactive

TMEM45A (transmembrane protein 45A) [SID134324695]
- cell gain with vemurafenib: 0.73
- lactate per cell with vemurafenib: 0.9
- Outcome: inactive

PAX9 (paired box 9) [SID152147881]
- cell gain with vemurafenib: 0.06
- lactate per cell with vemurafenib: 1.35
- Outcome: inactive

ANKRD6 (ankyrin repeat domain 6) [SID152154860]
- cell gain with vemurafenib: 0.6
- lactate per cell with vemurafenib: 0.82
- Outcome: inactive

FCGR1BP (Fc gamma receptor Ib, pseudogene) [SID135625592]
- cell gain with vemurafenib: 0.18
- lactate per cell with vemurafenib: 1.25
- Outcome: inactive

ELF5 (E74 like ETS transcription factor 5) [SID134315615]
- cell gain with vemurafenib: 0.91
- lactate per cell with vemurafenib: 0.83
- Outcome: inactive

ACTL10 (actin like 10) [SID135625233]
- cell gain with vemurafenib: 0.01
- lactate per cell with vemurafenib: 1.94
- Outcome: inactive

GCA (grancalcin) [SID134316710]
- cell gain with vemurafenib: 0.14
- lactate per cell with vemurafenib: 1.1
- Outcome: inactive

KCNV1 [SID134311696]
- cell gain with vemurafenib: 0.39
- lactate per cell with vemurafenib: 0.69
- Outcome: inactive

RELCH [SID152151649]
- cell gain with vemurafenib: 0.07
- lactate per cell with vemurafenib: 0.55
- Outcome: inactive

FNDC1 (fibronectin type III domain containing 1) [SID152147942]
- cell gain with vemurafenib: 0.24
- lactate per cell with vemurafenib: 1.44
- Outcome: inactive

ESYT3 (extended synaptotagmin 3) [SID152154517]
- cell gain with vemurafenib: 0.63
- lactate per cell with vemurafenib: 1.09
- Outcome: inactive

LYZ (lysozyme) [SID134315440]
- cell gain with vemurafenib: 0.38
- lactate per cell with vemurafenib: 1.36
- Outcome: inactive

ADRA1B (adrenoceptor alpha 1B) [SID135620984]
- cell gain with vemurafenib: 0.93
- lactate per cell with vemurafenib: 0.66
- Outcome: inactive

FA2H (fatty acid 2-hydroxylase) [SID134314353]
- cell gain with vemurafenib: 0.46
- lactate per cell with vemurafenib: 0.6
- Outcome: inactive

RHOT1 (ras homolog family member T1) [SID152150756]
- cell gain with vemurafenib: 0.82
- lactate per cell with vemurafenib: 0.94
- Outcome: inactive

GREM1 (gremlin 1, DAN family BMP antagonist) [SID152151693]
- cell gain with vemurafenib: 0.7
- lactate per cell with vemurafenib: 0.72
- Outcome: inactive

LUC7L (LUC7 like) [SID134319495]
- cell gain with vemurafenib: 0.16
- lactate per cell with vemurafenib: 3.02
- Outcome: inactive

MAGEA6 (MAGE family member A6) [SID135623692]
- cell gain with vemurafenib: 0.98
- lactate per cell with vemurafenib: 0.92
- Outcome: inactive

MMP27 (matrix metallopeptidase 27) [SID152148215]
- cell gain with vemurafenib: 0.66
- lactate per cell with vemurafenib: 1.02
- Outcome: inactive

PPP2R5A (protein phosphatase 2 regulatory subunit B'alpha) [SID134314107]
- cell gain with vemurafenib: 0.65
- lactate per cell with vemurafenib: 0.99
- Outcome: inactive

CALCR (calcitonin receptor) [SID134309978]
- cell gain with vemurafenib: 0.8
- lactate per cell with vemurafenib: 0.64
- Outcome: inactive

HTR3A (5-hydroxytryptamine receptor 3A) [SID134311622]
- cell gain with vemurafenib: 0.27
- lactate per cell with vemurafenib: 1.2
- Outcome: inactive

HTR3A (5-hydroxytryptamine receptor 3A) [SID134311622]
- cell gain with vemurafenib: 0.35
- lactate per cell with vemurafenib: 1.61
- Outcome: inactive

DEFB4A (defensin beta 4A) [SID135622435]
- cell gain with vemurafenib: 0.75
- lactate per cell with vemurafenib: 0.44
- Outcome: inactive

DGUOK (deoxyguanosine kinase) [SID152155858]
- cell gain with vemurafenib: 0.61
- lactate per cell with vemurafenib: 0.55
- Outcome: inactive

IGSF6 (immunoglobulin superfamily member 6) [SID152155127]
- cell gain with vemurafenib: 0.6
- lactate per cell with vemurafenib: 0.9
- Outcome: inactive

XRCC2 (X-ray repair cross complementing 2) [SID135620817]
- cell gain with vemurafenib: 0.97
- lactate per cell with vemurafenib: 0.2
- Outcome: inactive

IGBP1 (immunoglobulin binding protein 1) [SID134315646]
- cell gain with vemurafenib: 0.82
- lactate per cell with vemurafenib: 1.25
- Outcome: inactive

A2M (alpha-2-macroglobulin) [SID152153859]
- cell gain with vemurafenib: 0.35
- lactate per cell with vemurafenib: 1.75
- Outcome: inactive

ZNF408 (zinc finger protein 408) [SID134312187]
- cell gain with vemurafenib: 0.67
- lactate per cell with vemurafenib: 1.1
- Outcome: inactive

RPS6KL1 (ribosomal protein S6 kinase like 1) [SID152155635]
- cell gain with vemurafenib: 0.56
- lactate per cell with vemurafenib: 0.84
- Outcome: inactive

SLC2A6 [SID152151783]
- cell gain with vemurafenib: 0.52
- lactate per cell with vemurafenib: 1.07
- Outcome: inactive

NTN1 (netrin 1) [SID135622228]
- cell gain with vemurafenib: -0.05
- lactate per cell with vemurafenib: 2.01
- Outcome: inactive

PSKH1 (protein serine kinase H1) [SID135620975]
- cell gain with vemurafenib: 0.4
- lactate per cell with vemurafenib: 1.14
- Outcome: inactive

SLC23A2 [SID134312508]
- cell gain with vemurafenib: 0.64
- lactate per cell with vemurafenib: 0.96
- Outcome: inactive

ILF3 (interleukin enhancer binding factor 3) [SID135622323]
- cell gain with vemurafenib: 0.27
- lactate per cell with vemurafenib: 0.68
- Outcome: inactive

CDRT15P3 (CDRT15 pseudogene 3) [SID134330015]
- cell gain with vemurafenib: 0.05
- lactate per cell with vemurafenib: 2.38
- Outcome: inactive

SNCB (synuclein beta) [SID134315737]
- cell gain with vemurafenib: 0.48
- lactate per cell with vemurafenib: 1.42
- Outcome: inactive

ANKRD12 (ankyrin repeat domain 12) [SID152154478]
- cell gain with vemurafenib: 0.77
- lactate per cell with vemurafenib: 0.97
- Outcome: inactive

PNPT1 (polyribonucleotide nucleotidyltransferase 1) [SID134323240]
- cell gain with vemurafenib: 0.84
- lactate per cell with vemurafenib: 0.94
- Outcome: inactive

H4C4 (H4 clustered histone 4) [SID134315793]
- cell gain with vemurafenib: 0.36
- lactate per cell with vemurafenib: 2.13
- Outcome: inactive

PKD1L3 [SID152153630]
- cell gain with vemurafenib: 0.08
- lactate per cell with vemurafenib: 1.13
- Outcome: inactive

SULT1B1 (sulfotransferase family 1B member 1) [SID134313790]
- cell gain with vemurafenib: 0.4
- lactate per cell with vemurafenib: 1.29
- Outcome: inactive

RANBP2 (RAN binding protein 2) [SID152149066]
- cell gain with vemurafenib: 0.51
- lactate per cell with vemurafenib: 0.6
- Outcome: inactive

NUDT3 (nudix hydrolase 3) [SID134314513]
- cell gain with vemurafenib: 0.43
- lactate per cell with vemurafenib: 0.77
- Outcome: inactive

Look-ups from above.
For “Outcome”, CALCR (calcitonin receptor) [SID134309978] is entered as inactive
SULT1B1 (sulfotransferase family 1B member 1) [SID134313790], lactate per cell with vemurafenib = 1.29
Value of PKD1L3 [SID152153630] in “lactate per cell with vemurafenib”: 1.13
For “Outcome”, H4C4 (H4 clustered histone 4) [SID134315793] reads inactive
For “lactate per cell with vemurafenib”, ANKRD6 (ankyrin repeat domain 6) [SID152154860] reads 0.82
Value of ZC3HC1 (zinc finger C3HC-type containing 1) [SID152154939] in “Outcome”: inactive
